Results: the supplement of paper PMC3334620
Over roughly 33,000 sequences, “E-score (-0.5 to 0.5)” has its median near -0.015; the highest 2% begin near 0.3. Some of the results follow.

biological target: T1, Abf1 (UniProt P14164); experiment: PBM E-score (8-mer binding enrichment) (E-score (-0.5 to 0.5)); higher = stronger / more preferred TF binding; conditions: protein concentration: 200 nM; construct: GST-full length
T1 sequence: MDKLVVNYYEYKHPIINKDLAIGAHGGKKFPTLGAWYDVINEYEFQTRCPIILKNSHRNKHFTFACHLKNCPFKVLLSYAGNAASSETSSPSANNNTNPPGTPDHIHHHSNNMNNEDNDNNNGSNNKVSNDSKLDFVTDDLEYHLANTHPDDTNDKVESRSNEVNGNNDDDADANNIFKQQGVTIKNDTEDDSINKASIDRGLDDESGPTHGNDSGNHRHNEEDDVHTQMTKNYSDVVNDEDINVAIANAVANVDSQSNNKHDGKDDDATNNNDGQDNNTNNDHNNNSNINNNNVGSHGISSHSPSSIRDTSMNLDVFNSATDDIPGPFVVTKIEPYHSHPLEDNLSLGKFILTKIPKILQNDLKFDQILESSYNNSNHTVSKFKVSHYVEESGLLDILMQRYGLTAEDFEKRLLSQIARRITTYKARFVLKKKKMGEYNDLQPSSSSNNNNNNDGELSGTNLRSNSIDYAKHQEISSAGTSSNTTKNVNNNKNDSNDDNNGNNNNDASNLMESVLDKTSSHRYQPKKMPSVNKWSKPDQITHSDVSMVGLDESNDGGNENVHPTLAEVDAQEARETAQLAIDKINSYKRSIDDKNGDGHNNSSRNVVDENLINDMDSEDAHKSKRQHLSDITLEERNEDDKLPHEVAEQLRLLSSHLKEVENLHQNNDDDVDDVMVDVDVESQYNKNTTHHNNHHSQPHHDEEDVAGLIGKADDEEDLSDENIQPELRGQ
In short: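 Yeast transcription factors carrying a GST tag, as full-length proteins or DNA-binding domains, were produced by PURExpress in vitro transcription/translation. About 100-200 nM protein was applied to universal all-10-mer Agilent arrays, double-stranded by primer extension on fresh or once-stripped slides. Bound protein was detected with fluorescent anti-GST, and scans were normalised with masliner. The Universal PBM Analysis Suite gave each ungapped eight-base word, pooled with its reverse complement, an E-score, a modified Wilcoxon-Mann-Whitney statistic.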

Sequence	PBM E-score
AAAGCATC	0.0655
TACTCGAA	0.00285
GGTAAACA	-0.0751
AGCTGAAC	-0.186
AAATCTGG	0.00605
AAGGGGGC	-0.268
AGTGAAGC	-0.0888
CGTAGATA	0.213
CCGGGCAA	-0.241
AGATTGCA	0.0866
ACTGTGGG	-0.127
ATATAATG	0.248
ATCGTAGG	0.0423
CACCAGTC	-0.0323
GCGACACA	0.122
GTGTCGCA	-0.0335
GGGAGACA	-0.228
AATGTGCC	-0.0335
GCGTTACC	-0.0756
CCGCGAGC	-0.17
CGAGTGAC	0.358
GAGTAGCC	-0.187

Sequence	PBM E-score
TCCTTTAA	-0.0612
CCCGCGTC	-0.268
ACTTTGCT	0.0751
CGGGTTAC	0.167
GCGGATTA	0.0392
GCTGCAGC	-0.227
TAAGGTAA	0.0469
CGCTAGAG	-0.216
ATCATTCA	0.278
AACGGATC	0.107
CGATTAGC	0.0229
ACCCCTTA	0.0662
GGAACGAA	0.0112
GTGTAAGA	0.104
CTAGAGAG	-0.106
CTACCGTC	0.036
GAGGTGTA	-0.107
CAAGGGTG	-0.228
CTTCAGGC	-0.0909
GCTTCGAA	-0.00351
ATATGTGG	0.157
CTGCGCGA	-0.147

5 records drawn at random from the list so far:
Sequence	PBM E-score
CCCGCGTC	-0.268
GTGTAAGA	0.104
CTACCGTC	0.036
CTAGAGAG	-0.106
CGGGTTAC	0.167

Later entries.

Sequence	PBM E-score
AGACAACT	-0.0459
AATTCGGC	-0.26
GCCTTTAA	-0.0114
GAGAGAGA	-0.0759
CGTCATAC	0.316
CGAACTAC	0.0107
ACTATAAC	0.0346
CTGAGAGC	-0.223
AGAGGTCC	-0.00762
AGATGCGC	-0.0322
ACAGTAGC	-0.129
GATTGCAA	0.0434
CGATTCGC	-0.0463
ACGTAGAC	0.0202
GCCGACGA	0.176
CCGCATAA	0.026
CCAAGAAG	-0.162
CGGCACTA	-0.158
CTGACATA	0.0493
ACTATTCG	0.0377
CTTTCGTC	0.191
AAATCTTA	0.081

Sequence	PBM E-score
TACTAGGA	-0.192
CCAATCGG	-0.254
ACCGAGCC	0.00156
AGGACACT	-0.176
CGTAAAGC	-0.162
TAATATCA	0.344
GACGAGAA	0.203
GGCGCACA	-0.14
AGAAAAGC	-0.0493
CCCGGTAG	-0.0778
TTGGGAAA	0.0816
CTCATCCA	-0.0507
ATCTTACA	0.152
AAAGGTCA	-0.00768
ATGTTGCA	0.0107
GTGCCACA	0.00181
TACAATAA	0.112
TACCATAA	-0.0141
AGCGACGA	0.175
GGGACGAC	0.157
